The chains behind the UniProt entries cited, without tags or fusion partners.
UniProt P18054, whole entry, looked up: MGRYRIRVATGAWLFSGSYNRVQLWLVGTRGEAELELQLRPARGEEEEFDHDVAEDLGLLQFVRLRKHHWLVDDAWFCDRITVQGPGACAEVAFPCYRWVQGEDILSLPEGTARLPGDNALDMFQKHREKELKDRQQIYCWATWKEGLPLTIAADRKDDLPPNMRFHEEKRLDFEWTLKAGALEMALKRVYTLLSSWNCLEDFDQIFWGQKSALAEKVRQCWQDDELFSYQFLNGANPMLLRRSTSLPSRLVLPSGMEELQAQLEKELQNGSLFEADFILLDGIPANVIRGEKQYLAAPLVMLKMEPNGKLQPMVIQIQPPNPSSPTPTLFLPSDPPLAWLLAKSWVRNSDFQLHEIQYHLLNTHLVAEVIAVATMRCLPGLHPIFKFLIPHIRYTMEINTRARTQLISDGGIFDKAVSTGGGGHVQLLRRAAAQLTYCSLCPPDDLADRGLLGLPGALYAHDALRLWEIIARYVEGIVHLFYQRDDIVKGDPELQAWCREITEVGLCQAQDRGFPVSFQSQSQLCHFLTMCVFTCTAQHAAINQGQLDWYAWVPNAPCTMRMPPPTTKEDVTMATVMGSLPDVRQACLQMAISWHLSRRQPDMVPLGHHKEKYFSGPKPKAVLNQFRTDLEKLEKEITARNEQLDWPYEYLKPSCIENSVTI

Out of some 580,000 compounds screened, about 6,100 (1.1%) were called active. Inconclusive means that the source gave no clear call. Such entries were picked first, then a sample of the others. Calls come from the whole dose curve; as a rule, active = well fitted inhibition curve with a large enough effect; inconclusive = small, poorly fitted or top-dose-only effect, or another doubt; inactive = no such curve, though single readings can be large or run the other way. Potencies beside an inconclusive call are fits to weak or partial responses and may not hold up.
What follows are molecules tested against Polyunsaturated fatty acid lipoxygenase ALOX12 (Homo sapiens) (UniProt P18054) (assay: Primary qHTS assay for inhibitors of human arachidonate 12S-lipoxygenase (ALOX12): Round 2). Details: purified 12hLO, xylenol orange hydroperoxide absorbance; activity change, negative = inhibition: at 108 µM (top of the series) unless noted.
Summary of the method: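 Purified human 12hLO at 150 nM in 25 mM Hepes, 0.01% Triton X-100, pH 7.0, preincubated 15 min at room temperature with compound. Reaction started with 40 uM arachidonic acid, 30 min at room temperature. Hydroperoxide measured by Fe-xylenol orange, 573/405 nm absorbance ratio.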
With `Cc1ccc(NC(=O)CSc2nc3ccccc3c(=O)n2CCCC(=O)NCCCN2CCOCC2)cc1` the “activity change, negative = inhibition” value was inactive: -10.9%.
For `O=C(NCC1CCCO1)c1cccc(NC(=O)c2ccco2)c1` (stereo unspecified), the “activity change, negative = inhibition” value was inactive: -19.8%.
`CC1CN(CCOc2ccc(F)cc2)CC(C)O1` (stereo unspecified) was tested, and the Potency was inconclusive: 1.78 µM [inhibitor, full curve, poor fit].
`CNc1nc(-c2ccc3c(c2)OCCCO3)cs1` was tested, and the Potency was inconclusive: 50.1 µM [inhibitor, single point].
With `Cc1ccc(-c2nc(N)s[n+]2-c2ccccc2)cc1` the Potency was inconclusive: 4.47 µM [inhibitor, full curve, poor fit].
In the case of `COc1cc(C)c(C(C)C)cc1S(=O)(=O)n1cnc(C)c1`, the Potency is reported as inconclusive: 100 µM [inhibitor, single point].
`CC(OC(=O)c1csc(NCc2ccccc2)n1)C(=O)N1CCNC1=O` (stereo unspecified) was tested, and the “activity change, negative = inhibition” value was inactive: -2.51%.
For `CN(C)c1ccc(C=C2C=CC=C2)cc1`, the Potency was inconclusive: 44.7 µM [inhibitor, partial curve, poor fit].
For `Cc1ccc(C)c(NC(=O)c2cc(C)nc3ccccc23)c1`, the “activity change, negative = inhibition” value was inactive: -2.05%.
`COCCNC(=O)CN(C(=O)Cn1nnc2ccccc21)c1ccccc1C` was tested, and the Potency was inconclusive: 31.6 µM [inhibitor, single point].
In the case of `Cc1cccc(N2CCN(c3nc4ccccc4c4nnc(C)n34)CC2)c1C`, the “activity change, negative = inhibition” value is reported as inactive: -2.12%.
For `O=C(CSc1cccc2cccnc12)Nc1cccc(S(=O)(=O)N2CCOCC2)c1`, the “activity change, negative = inhibition” value was inactive: -4.59%.
In the case of `O=C(NC1CCCC1)c1cc2nc(-c3ccco3)cc(C(F)(F)F)n2n1`, the “activity change, negative = inhibition” value is reported as inactive: -17.8%.
In the case of `CC(C)CNc1nc(-c2ccc3c(c2)CCC(=O)N3)cs1`, the Potency is reported as active: 12.6 µM.
For `CC(Nc1n[nH]c(=S)[nH]c1=O)C(=O)OCc1ccccc1` (stereo unspecified), the Potency was inconclusive: 50.1 µM [inhibitor, partial curve, poor fit].
With `COc1ccc(/C=c2\s/c(=C\C(=O)C(C)(C)C)[nH]c2=O)cc1O` the Potency was inconclusive: 44.7 µM [inhibitor, single point].
In the case of `c1cncc(-c2noc(-c3cccc4ccccc34)n2)c1`, the “activity change, negative = inhibition” value is reported as inactive: 13%.
`COC(=O)C1=C(C)N(Cc2ccccc2C(F)(F)F)C(=NCc2ccccc2)NC1c1cccc(C(F)(F)F)c1` (stereo unspecified) was tested, and the Potency was inconclusive: 50.1 µM [inhibitor, partial curve, poor fit].
With `Cc1cc(C)cc(-n2ccnc2SCC(=O)Nc2ccccc2F)c1` the “activity change, negative = inhibition” value was inactive: -20.3%.
In the case of `Cc1cccc(NC(=O)c2c(NC(=O)c3ccccc3)sc3c2CCC3)c1`, the Potency is reported as inconclusive: 126 µM [inhibitor, partial curve, poor fit].
For `CC(O)CSc1nc2c(c(=O)n(C)c(=O)n2C)n1Cc1ccccc1Cl` (stereo unspecified), the Potency was inconclusive: 70.8 µM [inhibitor, partial curve, poor fit].

— PubChem BioAssay AID1671190 (National Center for Advancing Translational Sciences (NCATS), 2021)
% is set by controls: 0 for no effect and ±100 for the full control effect; potency is the fitted concentration of half-maximal effect.
